Consider one molecule from patent US20090004166A1, “Carrier For Enternal Administration” (priority 2004, published 2009).

The subject of this experiment is Sprague-Dawley rats. To be noted: oral gavage, 5 mg/kg.

Each structure is given as a SMILES string.

Regarding `CN1CC[C@]23c4c5ccc(O)c4O[C@H]2[C@@H](O)C=C[C@H]3[C@H]1C5.O=S(=O)(O)O` [morphine sulphate], the “duration of analgesic effect following oral administration” value is recorded as “first hour”.
